Test results: patent US8710084B2 (priority 2009, dated 2014)
Some of these results come from one statement about several compounds together. At least one compound was matched to its structure with a doubt left.

How the values were obtained:
[1] = test system: tomato late blight pathogen (Phytophthora infestans); type: in vivo; details: tomato seedlings (Regina) sprayed with emulsion, active ingredient 100 ppm; inoculated with zoosporangia, 4 days at 20° C.
[2] = test system: Pythium aphanidermatum; assay: Antibacterial test (mycelia elongation inhibition); type: cell-based; details: compound concentration of 1 ppm; PSY medium, 25° C. in the dark, 3-7 days of cultivation

| SMILES | protective value [1] | mycelia elongation inhibition rate [2] |
| --- | --- | --- |
| CC(=NOC(C)C)C(=O)Nc1cccc(CO/N=C(/c2ccccc2)c2nnnn2C)n1 [Compound 1-a-78] | ≥ 90% | ≥ 50% |
| CON=C(C(=O)Nc1cccc(CO/N=C(/c2ccccc2)c2nnnn2C)n1)C(=O)N(C)C [Compound 1-a-81] | ≥ 90% |  |
| CC#CCON=C(C)C(=O)Nc1cccc(CO/N=C(/c2ccccc2)c2nnnn2C)n1 [Compound 1-a-74] | ≥ 90% | ≥ 50% |
| CON=C(C(=O)Nc1cccc(CO/N=C(/c2ccccc2)c2nnnn2C)n1)c1ccccc1 [Compound 1-a-16] | ≥ 90% | ≥ 50% |
| CCON=C(C)COC(=O)Nc1cccc(CO/N=C(/c2ccccc2)c2nnnn2C)n1 [Compound 1-g-1] | ≥ 90% | ≥ 50% |
| CCCON=C(C)C(C)(C)OC(=O)Nc1cccc(CO/N=C(/c2ccccc2)c2nnnn2C)n1 [Compound 1-g-5] | ≥ 90% | ≥ 50% |
| CON=C(C)C(=O)Nc1ccc(Cl)c(CO/N=C(/c2ccccc2)c2nnnn2C)n1 [Compound 1-a-84] |  | ≥ 50% |
| CON=C(C)C(=O)Nc1cccc(CO/N=C(/c2cccc(F)c2)c2nnnn2C)n1 [Compound 1-a-82] | ≥ 90% | ≥ 50% |
| C#CCON=C(C)C(=O)Nc1cccc(CO/N=C(/c2ccccc2)c2nnnn2C)n1 [Compound 1-a-8] | ≥ 90% | ≥ 50% |
| C#CCON=C(C#N)C(=O)Nc1cccc(CO/N=C(/c2ccccc2)c2nnnn2C)n1 [Compound 1-a-70] | ≥ 90% | ≥ 50% |
| CCOC(OCC)C1CC(C(=O)Nc2cccc(CO/N=C(/c3ccccc3)c3nnnn3C)n2)=NO1 (stereo not drawn) [Compound 1-a-92] | ≥ 90% | ≥ 50% |
| CON=C(C)CC(=O)Nc1cccc(CO/N=C(/c2ccccc2)c2nnnn2C)n1 [Compound 1-b-3] | ≥ 90% |  |
| CCOC(=O)C(=NOC)C(=O)Nc1cccc(CO/N=C(/c2ccccc2)c2nnnn2C)n1 [Compound 1-a-80] | ≥ 90% | ≥ 50% |
| Cn1nnnc1/C(=N\OCc1cccc(NC(=O)C2=NOC(c3ccccc3)C2)n1)c1ccccc1 (stereo not drawn) [Compound 1-a-86] | ≥ 90% | ≥ 50% |
| COCC1CC(C(=O)Nc2cccc(CO/N=C(/c3ccccc3)c3nnnn3C)n2)=NO1 (stereo not drawn) [Compound 1-a-88] | ≥ 90% | ≥ 50% |
| CON=C(C)C(=O)Nc1nc(CO/N=C(/c2ccccc2)c2nnnn2C)c(Cl)cc1Cl [Compound 1-a-85] |  | ≥ 50% |
| CCON=CC(=O)Nc1cccc(CO/N=C(/c2ccccc2)c2nnnn2C)n1 [Compound 1-a-69] | ≥ 90% | ≥ 50% |
| COCC(=NOC)C(=O)Nc1cccc(CO/N=C(/c2ccccc2)c2nnnn2C)n1 [Compound 1-a-26] | ≥ 90% | ≥ 50% |
| Cn1nnnc1/C(=N\OCc1cccc(NC(=O)C2=NOCC2)n1)c1ccccc1 [Compound 1-a-65] | ≥ 90% | ≥ 50% |
| Cn1nnnc1/C(=N\OCc1cccc(NC(=O)C2=NOC3COCC23)n1)c1ccccc1 (stereo not drawn) [Compound 1-a-87] | ≥ 90% |  |

| SMILES | protective value [1] | mycelia elongation inhibition rate [2] |
| --- | --- | --- |
| Cn1nnnc1/C(=N\OCc1cccc(NC(=O)OC(C)(C)C2=NOC(C)(C)C2)n1)c1ccccc1 [Compound 1-g-7] | ≥ 90% | ≥ 50% |
| CC(C)ON=CC(=O)Nc1cccc(CO/N=C(/c2ccccc2)c2nnnn2C)n1 [Compound 1-a-79] | ≥ 90% | ≥ 50% |
| CC(=NOCC1CC1)C(=O)Nc1cccc(CO/N=C(/c2ccccc2)c2nnnn2C)n1 [Compound 1-a-77] | ≥ 90% | ≥ 50% |
| COCCON=C(C)C(=O)Nc1cccc(CO/N=C(/c2ccccc2)c2nnnn2C)n1 [Compound 1-a-9] | ≥ 90% | ≥ 50% |
| CCON=C(C)CCCOC(=O)Nc1cccc(CO/N=C(/c2ccccc2)c2nnnn2C)n1 [Compound 1-g-3] | ≥ 90% | ≥ 50% |
| Cn1nnnc1/C(=N\OCc1cccc(NC(=O)C2=NOC3CCCCC23)n1)c1ccccc1 (stereo not drawn) [Compound 1-a-93] | ≥ 90% |  |
| CC(=NOCc1cccc(NC(=O)OC(C)(C)C)n1)C(=O)Nc1cccc(CO/N=C(/c2ccccc2)c2nnnn2C)n1 [Compound 1-a-73] |  | ≥ 50% |
| CON=C(C(C)=O)C(=O)Nc1cccc(CO/N=C(/c2ccccc2)c2nnnn2C)n1 [Compound 1-a-71] | ≥ 90% |  |
| CCON=CCOC(=O)Nc1cccc(CO/N=C(/c2ccccc2)c2nnnn2C)n1 [Compound 1-g-6] | ≥ 90% |  |
| CCON=C(C)CCOC(=O)Nc1cccc(CO/N=C(/c2ccccc2)c2nnnn2C)n1 [Compound 1-g-2] | ≥ 90% | ≥ 50% |
| CON=C(C)C(=O)Nc1cccc(CO/N=C(/c2ccc(F)c(C)c2)c2nnnn2C)n1 [Compound 1-a-83] | ≥ 90% | ≥ 50% |
| CC(=NOCC(C)(C)C)C(=O)Nc1cccc(CO/N=C(/c2ccccc2)c2nnnn2C)n1 [Compound 1-a-75] |  | ≥ 50% |
| CON=C(C(=O)Nc1cccc(CO/N=C(/c2ccccc2)c2nnnn2C)n1)c1ccccn1 [Compound 1-a-21] | ≥ 90% |  |
| CCCON=C(C)C(C)OC(=O)Nc1cccc(CO/N=C(/c2ccccc2)c2nnnn2C)n1 (stereo not drawn) [Compound 1-g-4] | ≥ 90% | ≥ 50% |
| Cn1nnnc1/C(=N\OCc1cccc(NC(=O)C=NOCc2ccccc2)n1)c1ccccc1 [Compound 1-a-76] | ≥ 90% | ≥ 50% |
| CC(=NOCc1ccccc1)C(=O)Nc1cccc(CO/N=C(/c2ccccc2)c2nnnn2C)n1 [Compound 1-a-12] | ≥ 90% | ≥ 50% |
| CCON=C(C#N)C(=O)Nc1cccc(CO/N=C(/c2ccccc2)c2nnnn2C)n1 [Compound 1-a-68] | ≥ 90% | ≥ 50% |
| CON=C(C)C(=O)Nc1cccc(CO/N=C(/c2ccccc2)c2nnnn2C)n1 [Compound 1-a-3, (Z)-(1-methyl-1H-tetrazol-5-yl)phenyl methanone-O-{2-[(1-methoxyimino)ethanecarbonylamino]pyridin-6-ylmethyl}-oxime] | ≥ 90% |  |
| C=CCON=C(C)C(=O)Nc1cccc(CO/N=C(/c2ccccc2)c2nnnn2C)n1 [Compound 1-a-6] | ≥ 90% | ≥ 50% |
